{"source": "PubChem BioAssay AID1259405 (NCATS, 2018)", "aim": "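Silenced genes that increase secreted GFP made by CHO cells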 (primary screen)", "cells": "Chinese hamster CHO-K1 ovary cells with stable secreted eGFP expression", "knock-down reagent": "single siRNA against mouse genes, 0.8 pmol siRNA per well (2 µl of 400 nM stock)", "timing": "3 days", "detection": "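Percent of the per-plate non-targeting control median for intracellular GFP per well by laser scanning cytometry and for cell viability by ATP luminescence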", "direction": "GFP, % of control: higher = more GFP per well, higher productivity; viability (ATP), % of control: higher = more viable cells (more ATP)", "call rule": "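Called active when intracellular GFP, relative to negative control, is at or above 120%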", "note": "The deposit covers about 50,000 reagents; this is a random part of them. About 4,000 of all reagents (8%) count as active. 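Mouse siRNA library applied to hamster cells; one well for each siRNA.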 Reagents against one gene are numbered here. Reagent sequences are not shown."}
The first 2 records, to show the layout:
{"gene":"Mms19","reagent":1,"GFP, % of control":83.3,"viability (ATP), % of control":102,"Outcome":"inactive"}
{"gene":"Mms19","reagent":2,"GFP, % of control":96.3,"viability (ATP), % of control":49.1,"Outcome":"inactive"}

Main list, from the start:
{"gene":"Mms19","reagent":1,"GFP, % of control":83.3,"viability (ATP), % of control":102,"Outcome":"inactive"}
{"gene":"Mms19","reagent":2,"GFP, % of control":96.3,"viability (ATP), % of control":49.1,"Outcome":"inactive"}
{"gene":"Mms19","reagent":3,"GFP, % of control":64.4,"viability (ATP), % of control":94.4,"Outcome":"inactive"}
{"gene":"Gpalpp1","reagent":1,"GFP, % of control":81.4,"viability (ATP), % of control":102,"Outcome":"inactive"}
{"gene":"Gpalpp1","reagent":2,"GFP, % of control":45.1,"viability (ATP), % of control":70.2,"Outcome":"inactive"}
{"gene":"Gpalpp1","reagent":3,"GFP, % of control":83.7,"viability (ATP), % of control":83.6,"Outcome":"inactive"}
{"gene":"Scd2","reagent":1,"GFP, % of control":47.3,"viability (ATP), % of control":54.6,"Outcome":"inactive"}
{"gene":"Scd2","reagent":2,"GFP, % of control":61.1,"viability (ATP), % of control":63.9,"Outcome":"inactive"}
{"gene":"Scd2","reagent":3,"GFP, % of control":76.6,"viability (ATP), % of control":101,"Outcome":"inactive"}
{"gene":"Thra","reagent":1,"GFP, % of control":105,"viability (ATP), % of control":77.5,"Outcome":"inactive"}
{"gene":"Thra","reagent":2,"GFP, % of control":66.5,"viability (ATP), % of control":74.5,"Outcome":"inactive"}
{"gene":"Thra","reagent":3,"GFP, % of control":69.7,"viability (ATP), % of control":70.9,"Outcome":"inactive"}
{"gene":"H2-Ab1","reagent":1,"GFP, % of control":114,"viability (ATP), % of control":58.8,"Outcome":"inactive"}
{"gene":"H2-Ab1","reagent":2,"GFP, % of control":141,"viability (ATP), % of control":110,"Outcome":"active"}
{"gene":"H2-Ab1","reagent":3,"GFP, % of control":104,"viability (ATP), % of control":70.7,"Outcome":"inactive"}
{"gene":"Ropn1","reagent":1,"GFP, % of control":62.7,"viability (ATP), % of control":52.3,"Outcome":"inactive"}
{"gene":"Ropn1","reagent":2,"GFP, % of control":149,"viability (ATP), % of control":36.1,"Outcome":"active"}
{"gene":"Ropn1","reagent":3,"GFP, % of control":55.9,"viability (ATP), % of control":73.2,"Outcome":"inactive"}
{"gene":"Thoc5","reagent":1,"GFP, % of control":64.9,"viability (ATP), % of control":84.3,"Outcome":"inactive"}
{"gene":"Thoc5","reagent":2,"GFP, % of control":79.6,"viability (ATP), % of control":96.3,"Outcome":"inactive"}
{"gene":"Thoc5","reagent":3,"GFP, % of control":65.9,"viability (ATP), % of control":39.8,"Outcome":"inactive"}
{"gene":"Lcn9","reagent":1,"GFP, % of control":119,"viability (ATP), % of control":129,"Outcome":"inactive"}
{"gene":"Lcn9","reagent":2,"GFP, % of control":118,"viability (ATP), % of control":93.2,"Outcome":"inactive"}
{"gene":"Lcn9","reagent":3,"GFP, % of control":76.9,"viability (ATP), % of control":54,"Outcome":"inactive"}
{"gene":"Gpr68","reagent":1,"GFP, % of control":72.1,"viability (ATP), % of control":76.2,"Outcome":"inactive"}
{"gene":"Gpr68","reagent":2,"GFP, % of control":53.7,"viability (ATP), % of control":71.2,"Outcome":"inactive"}
{"gene":"Gpr68","reagent":3,"GFP, % of control":61.1,"viability (ATP), % of control":77,"Outcome":"inactive"}
{"gene":"Birc3","reagent":1,"GFP, % of control":118,"viability (ATP), % of control":116,"Outcome":"inactive"}
{"gene":"Birc3","reagent":2,"GFP, % of control":85.2,"viability (ATP), % of control":116,"Outcome":"inactive"}
{"gene":"Galnt10","reagent":1,"GFP, % of control":56.9,"viability (ATP), % of control":56.1,"Outcome":"inactive"}
{"gene":"Galnt10","reagent":2,"GFP, % of control":86.1,"viability (ATP), % of control":79.7,"Outcome":"inactive"}
{"gene":"Galnt10","reagent":3,"GFP, % of control":61.6,"viability (ATP), % of control":81,"Outcome":"inactive"}
{"gene":"Ucp2","reagent":1,"GFP, % of control":120,"viability (ATP), % of control":85.4,"Outcome":"inactive"}
{"gene":"Ucp2","reagent":2,"GFP, % of control":58.8,"viability (ATP), % of control":55.4,"Outcome":"inactive"}
{"gene":"Ucp2","reagent":3,"GFP, % of control":133,"viability (ATP), % of control":106,"Outcome":"active"}
{"gene":"Mcat","reagent":1,"GFP, % of control":144,"viability (ATP), % of control":61.2,"Outcome":"active"}
{"gene":"Mcat","reagent":2,"GFP, % of control":102,"viability (ATP), % of control":94.9,"Outcome":"inactive"}
{"gene":"Mcat","reagent":3,"GFP, % of control":26,"viability (ATP), % of control":34.3,"Outcome":"inactive"}
{"gene":"Slc6a11","reagent":1,"GFP, % of control":77,"viability (ATP), % of control":67.9,"Outcome":"inactive"}
{"gene":"Slc6a11","reagent":2,"GFP, % of control":90.6,"viability (ATP), % of control":73.4,"Outcome":"inactive"}
{"gene":"Slc6a11","reagent":3,"GFP, % of control":75.7,"viability (ATP), % of control":99.3,"Outcome":"inactive"}
{"gene":"Fat1","reagent":1,"GFP, % of control":55.3,"viability (ATP), % of control":62.4,"Outcome":"inactive"}
{"gene":"Fat1","reagent":2,"GFP, % of control":99.4,"viability (ATP), % of control":91.5,"Outcome":"inactive"}
{"gene":"Ccl3","reagent":1,"GFP, % of control":124,"viability (ATP), % of control":145,"Outcome":"active"}
{"gene":"Ccl3","reagent":2,"GFP, % of control":53,"viability (ATP), % of control":52.9,"Outcome":"inactive"}
{"gene":"Disp2","reagent":1,"GFP, % of control":50.5,"viability (ATP), % of control":84.7,"Outcome":"inactive"}
{"gene":"Disp2","reagent":2,"GFP, % of control":44.9,"viability (ATP), % of control":69.9,"Outcome":"inactive"}
{"gene":"Disp2","reagent":3,"GFP, % of control":64.7,"viability (ATP), % of control":86.7,"Outcome":"inactive"}
{"gene":"Plcg2","reagent":1,"GFP, % of control":118,"viability (ATP), % of control":118,"Outcome":"inactive"}
{"gene":"Plcg2","reagent":2,"GFP, % of control":152,"viability (ATP), % of control":118,"Outcome":"active"}
{"gene":"Plcg2","reagent":3,"GFP, % of control":52.1,"viability (ATP), % of control":62.9,"Outcome":"inactive"}
{"gene":"Snw1","reagent":1,"GFP, % of control":84.8,"viability (ATP), % of control":85.2,"Outcome":"inactive"}
{"gene":"Snw1","reagent":2,"GFP, % of control":89.8,"viability (ATP), % of control":53.2,"Outcome":"inactive"}
